Data on one substance can be found in publication PMC10454316.

By UniProt entry, the sequences of proteins in these tests, tags left out.
UniProt Q12809: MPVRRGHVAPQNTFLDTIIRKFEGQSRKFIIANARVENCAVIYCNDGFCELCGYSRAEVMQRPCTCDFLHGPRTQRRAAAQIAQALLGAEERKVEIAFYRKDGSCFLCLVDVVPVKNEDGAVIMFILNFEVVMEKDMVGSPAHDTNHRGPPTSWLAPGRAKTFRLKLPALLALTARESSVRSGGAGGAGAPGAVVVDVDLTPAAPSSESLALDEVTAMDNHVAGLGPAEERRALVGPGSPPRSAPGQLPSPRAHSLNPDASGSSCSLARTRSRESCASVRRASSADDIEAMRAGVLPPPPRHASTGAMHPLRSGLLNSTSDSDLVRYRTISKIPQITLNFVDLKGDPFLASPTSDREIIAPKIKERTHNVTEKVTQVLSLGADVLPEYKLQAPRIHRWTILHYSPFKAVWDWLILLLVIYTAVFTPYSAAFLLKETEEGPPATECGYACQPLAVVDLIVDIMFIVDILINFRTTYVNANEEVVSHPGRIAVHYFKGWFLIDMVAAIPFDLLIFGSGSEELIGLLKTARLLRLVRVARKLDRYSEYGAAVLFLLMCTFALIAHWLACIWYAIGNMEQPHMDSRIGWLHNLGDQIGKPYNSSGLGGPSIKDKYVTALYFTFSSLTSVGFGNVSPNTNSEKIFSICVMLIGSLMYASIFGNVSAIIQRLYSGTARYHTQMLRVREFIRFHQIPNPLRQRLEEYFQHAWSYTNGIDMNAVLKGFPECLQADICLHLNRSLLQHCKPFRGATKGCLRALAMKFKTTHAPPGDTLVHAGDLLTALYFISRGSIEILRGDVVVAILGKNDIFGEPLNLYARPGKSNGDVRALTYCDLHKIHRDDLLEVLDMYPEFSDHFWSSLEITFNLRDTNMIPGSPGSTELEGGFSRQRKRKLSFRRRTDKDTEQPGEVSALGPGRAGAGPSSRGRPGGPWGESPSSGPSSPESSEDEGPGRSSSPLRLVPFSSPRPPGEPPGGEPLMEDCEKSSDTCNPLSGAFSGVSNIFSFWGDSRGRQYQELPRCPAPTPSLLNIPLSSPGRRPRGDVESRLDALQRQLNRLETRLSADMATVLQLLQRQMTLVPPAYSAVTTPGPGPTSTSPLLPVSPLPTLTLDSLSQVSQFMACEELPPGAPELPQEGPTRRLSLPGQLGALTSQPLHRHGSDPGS

These are yes or no findings as the source states them, for the method shown. In cells and extracts the contact can be indirect. Some binding calls cover weakened binding; strength is not graded here.

The experiment has as its target wild-type hERG-GFP (Kv11.1 alpha subunit with GFP fused to the C-terminus) (human) (UniProt Q12809). Put plainly: co-IP; HEK293T co-transfected with WT-HERG-GFP and untagged WT- or S981Lfs-HERG; lysis buffer 5 mM EDTA, 250 mM NaCl, 50 mM HEPES, 0.1% NP40; IP with anti-GFP antibody and protein A/G plus, blot with anti-hERG antibody.

With “wild-type hERG, untagged (Kv11.1 alpha subunit) (from UniProt Q12809 1-1159)”, the binding entry is “binds”.
